# Data from PubChem BioAssay AID1347426 (Functional Genomics Laboratory (NCATS/FGL), 2020).
# In all, about 31,000 sequences went through this assay and about 1,400 (4.5%) were called active.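 How the source made its calls: active means median seed-adjusted z-score above 1 or below -1; inactive means the rest.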 Some of the results follow.
# Test: Novel Modifiers of Survival Motor Neuron (SMN) Protein: Gene Identification via Genome-wide siRNA Screen;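 further: luminescence tracks full-length SMN protein made from the SMN2 reporter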
# Details: HEK293T SMN2-luciferase reporter, siRNA knockdown, 72 h; actives lie on both sides
# Procedure, shortened: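 HEK293T cells stably carrying an SMN2 promoter/splicing cassette–luciferase reporter were reverse-transfected with 1 pmol siRNA per well (druggable-genome library, 3 siRNAs per gene) and grown 72 h at 37 °C. Luminescence, normalized to negative-control siRNA and log10-transformed, was scored as MAD.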
row,Sequence,median seed-adjusted z-score
1,GAAUUACUGAUGUCCUUGATT against RUFY1,inactive: 0.119
2,GUAAGCAACGUAUUAAAUATT against STAM,inactive: 0
3,GGUCAUUAAUUUACAUGAATT against STK17A,inactive: 0
4,AGUCAGCAUUCGCUACAAUTT against SLC31A1,inactive: 0
5,CCCUAUUCUUCGCUACCUATT against CYP1A1,inactive: 0.124
6,GCCUGGUUAUAGAUCGAGATT against PRKG2,inactive: 0.272
7,GGAAAUGAGUGUCUGAACATT against CHMP6,active: -1.81
8,CGCAGGCGAAGUUACUCAATT against TXNRD2,inactive: 0.459
9,CCAGAUCAAGGUUCCAGGATT against TRMT1,inactive: -0.224
10,GGAUCUUAGCAACAUCAAUTT against SMURF2,inactive: 0.351
11,GGAUGAAAGUCCAUAUGGUTT against HSD17B14,inactive: 0.386
12,GGAUUUUUCCAAGGCUAAATT against NUDC,inactive: -0.227
13,GCCUUGGGUCUACUAAUAATT against TNFRSF1B,inactive: -0.483
14,GGCUCAUAACUGACAAGAUTT against SLC22A14,inactive: 0.215
15,GGUGGAUGAUCAUGACUCATT against ZC3HAV1,inactive: 0.522
16,CCGCUGCAACAACCAGAAATT against LRP3,active: -1.05
17,GAAGGACCAAUGUACGUCATT against ERN2,inactive: 0.526
18,GCCUGAAUCAGGAACAUCATT against NLP,inactive: -0.186
19,GGACAGCAAUGAGAAUGCATT against PCDHGA1,inactive: -0.319
20,CUCACUAUUUGAUAAAUGATT against CX3CR1,inactive: -0.292
21,GGGAGAAGGGAUAACCCUATT against CD74,inactive: 0.0748
22,GAUGUAUAAAGGGUUCCAATT against TIMP1,inactive: -0.0422

# 5 entries from above, with bars between the fields.
row | Sequence | median seed-adjusted z-score
16 | CCGCUGCAACAACCAGAAATT against LRP3 | active: -1.05
17 | GAAGGACCAAUGUACGUCATT against ERN2 | inactive: 0.526
18 | GCCUGAAUCAGGAACAUCATT against NLP | inactive: -0.186
19 | GGACAGCAAUGAGAAUGCATT against PCDHGA1 | inactive: -0.319
20 | CUCACUAUUUGAUAAAUGATT against CX3CR1 | inactive: -0.292

# Further results:

row,Sequence,median seed-adjusted z-score
1,CGACAGUCUUGCUGAAAAATT against NOTO,inactive: -0.193
2,GCUGAUCUAUCACAAACCATT against SERPINA2,inactive: 0.285
3,GUGUGGAUAUGAUCAUGGATT against POT1,inactive: 0.459
4,GGAUCUCACUUUAGAUAAUTT against RSC1A1,inactive: 0.438
5,CCACUUAAGCUGUCAUGUATT against VEZF1,inactive: 0.974
6,CCACAUGCUUCAAACAUCATT against TOR1A,inactive: -0.231
7,GAACAGAUGGAUUACCUUUTT against IL2,inactive: 0.0694
8,GUACAUAGAUUAGGUUUUATT against POLR2J,inactive: 0.0437
9,GCCUUGCUAGUGUACCCAATT against GNPTG,inactive: -0.401
10,GACCUAUAGACUUCACAAATT against OPHN1,inactive: 0.692
11,GGCUUUGAGCAUAAGAUCATT against MAP3K10,inactive: 0.201
12,GAACAUCUUAUUUCACGAATT against FBXW11,inactive: 0.206
13,CCUCGAACCUUAUGAGACATT against ZNF479,inactive: -0.269
14,GAACCGCACUCUUCCCAAATT against S100A13,inactive: 0.153
15,GCCGUGCAUUUCUACGGAATT against SGTA,inactive: 0.819
16,GCAUGAGAAGCGAAUGUCATT against NFIB,inactive: 0.1
17,ACAUCAUCUCGGUUCCGCATT against ESR1,inactive: -0.408
18,CAUUGUGAAUUAUUACCUATT against CCL19,inactive: 0.0364
19,CCCACAUAAUCAUCACGUUTT against GNS,inactive: 0
20,CAACCACCAUCUGACCUUUTT against MMP15,inactive: -0.0489
21,GCAAGAAGAUCAUAUGUGATT against OC90,inactive: 0.216
22,CCAUGAUAUUGGAACUGAATT against TBX15,inactive: 0.265

row,Sequence,median seed-adjusted z-score
1,CAACAACCAUAAGCGUGUATT against ZNF34,inactive: 0.0391
2,GUCUCACCGUAUUUCAAGATT against SNTA1,inactive: 0.212
3,CAUGAACAGUUUAUCGUAATT against FMR1,inactive: 0.504
4,GAAACGCAAGGGUACAGAATT against RUVBL2,inactive: -0.0764
5,GUAAGUUUGUUCACCGAGATT against MUSK,inactive: 0.138
6,ACAUAAAAUCUACGAGUUUTT against IRF3,inactive: 0.0117
7,CGCACUGUCUCUUACAACATT against PDE12,inactive: 0.422
8,CAUUCAACAUUCACGAAAATT against IPO8,inactive: -0.349
9,GCCUUCAAGUGUUCCCGUUTT against ZNF709,inactive: 0.0129
10,GCCGAGUCUGUAUAACUCATT against SLC16A8,inactive: 0.192
11,GGACGGUGAUUGAGAUGUUTT against EHMT1,inactive: 0.00857
12,GGAUGUUAAUUUUUCGCUUTT against SLC22A2,inactive: -0.0161
13,GCAAACACCUGUUUGUGCATT against TEAD3,inactive: 0
14,CUCAGGAGCUGUUUCAACATT against PPOX,inactive: 0.519
15,AGUUUCGUCUUAUACUUCATT against SLC24A3,inactive: 0.0177
16,AUACAGAUGAUAAACCAUUTT against ZBTB34,inactive: 0.0298
17,GCAUGACCGGUGGACUUUUTT against OVGP1,inactive: -0.642
18,GUUCAAUACUUGAACACGATT against FFAR2,inactive: 0.146
19,GGAUUUGGGUGGAACUGAATT against TRNT1,inactive: 0.142
20,GGAGAGGUUUCGUAGCUUATT against RAB27A,inactive: -0.134
21,AGACCGCAAUUCUAAGUUUTT against GPR4,inactive: 0.563
22,GAAUGAGGCUUUUGUGGAUTT against CAPN12,inactive: 0.155

# A few values from above:
# Entry of GGAGAGGUUUCGUAGCUUATT against RAB27A under median seed-adjusted z-score: inactive: -0.134
# Entry of CAUUCAACAUUCACGAAAATT against IPO8 under median seed-adjusted z-score: inactive: -0.349

# Further entries.

row,Sequence,median seed-adjusted z-score
1,CCGAUGAUCUACCCACAAATT against TLR3,inactive: 0.0615
2,GCAUCUCGAUGAUCCAGGATT against SLITRK5,inactive: 0.165
3,GCACCUUCGUCUACAAGGATT against PDE6A,active: 1.25
4,GGACUGCGGUACCUAAUUUTT against PLCL2,inactive: 0.393
5,GCAUUGCAAUGUUUCCAAUTT against ZNF396,inactive: -0.247
6,ACUACUAUGUCUUCACCGATT against ABO,inactive: 0
7,CCUUUGUGCUCUACCUACATT against TTC16,inactive: 0
8,AGCCGUGCCUCAUCAAGAATT against WIZ,inactive: 0.282
9,GCAGCAUAUUAUAGACAAATT against ZBTB37,inactive: -0.219
10,GACCCACAGUUGCAGCAUUTT against TIMM8A,inactive: 0.173
11,CACUCAGACGGGACGUUCATT against SCT,inactive: -0.454
12,CGAGCUGACUGAUGCCUUATT against CPT2,inactive: 0.542
13,GCAUCACACUCACCAACUATT against GPR124,inactive: 0.00658
14,GCCUACAUGUUUCUGCUGATT against RHO,inactive: -0.267
15,GCAAGGUCGUCAACCGCAATT against SAPS1,active: 1.16
16,CGAAACCUUUAAAUGCGAATT against SLITRK4,inactive: -0.015
17,CAUCAUAUCUCAAAGUAAATT against TUBA1B,inactive: 0.0888
18,CAUCGUAAGAUUAAUCCUATT against ZNF277,inactive: -0.0374
19,CAAAUAGUGUAUUACCUAATT against THAP2,inactive: -0.273
20,GGAAGCUAGUGGACUAUGATT against AMPH,inactive: -0.725
21,GGGUGCAACCCAAAUCUGATT against SPRY2,inactive: 0.148
22,CAUAAUGUCUGCAAUCGAATT against ATP2C1,inactive: -0.112

row,Sequence,median seed-adjusted z-score
1,GCCUCAUCUUCCGAGAAGATT against AMH,inactive: -0.255
2,CAUCAUUAAUGGUUAUGGATT against LRRTM2,inactive: 0.508
3,GCAUUACGGAGAACGUGAATT against MCF2L,inactive: -0.624
4,GGUUAUUGCACAGCGAUUATT against DLAT,inactive: 0
5,GGAAGCUUGUGAUUGGCUATT against DLC1,inactive: -0.0296
6,UGUCCACGGUUAAAAUUAUTT against CCL16,inactive: -0.308
7,GACAGUUCUUAAAACACCATT against ZNF500,inactive: 0
8,CCAGGUGAAGAGUCGAAAATT against PSKH2,inactive: 0.0439
9,ACAUCGAAGAGAUUUGUCATT against ADRBK1,inactive: 0
10,GAGUUAAAGAGGGUAUAGATT against WFDC12,inactive: 0
11,GUAGUCCUGUGAAACCGAUTT against RFXDC2,inactive: 0.724
12,GAUACGUCCUCAAGACGGATT against B3GALT4,inactive: 0.233
13,GGAGGACACGGGAAGCUAUTT against SIGLEC5,inactive: -0.615
14,CGCUUACAAGGUCAACAUUTT against S1PR3,inactive: -0.0931
15,GGAUUUUGCGUAUAGCUCUTT against ZNF285A,inactive: 0.148
16,GCAUUUCGCCUGACCAUUATT against SENP1,inactive: 0.625
17,CCUACGUUCCUUCCACUUUTT against GABRP,inactive: -0.441
18,GACUGACGGUUUUAGUCUUTT against CAPNS2,inactive: 0.529
19,GGAGCUUCUUGGAUGCCUUTT against KCNK6,inactive: -0.199
20,CCAACUAUUUCAUCGUGAATT against ADRA1D,inactive: -0.18
